Data on 42 sequences can be found in PMC7819943, “Rice protein-binding microarrays: a tool to detect cis-acting elements near promoter regions in rice”.

Sequences of proteins named here, by UniProt entry; tags and fusion partners are left off.
UniProt Q0JBA9, entry or part of it: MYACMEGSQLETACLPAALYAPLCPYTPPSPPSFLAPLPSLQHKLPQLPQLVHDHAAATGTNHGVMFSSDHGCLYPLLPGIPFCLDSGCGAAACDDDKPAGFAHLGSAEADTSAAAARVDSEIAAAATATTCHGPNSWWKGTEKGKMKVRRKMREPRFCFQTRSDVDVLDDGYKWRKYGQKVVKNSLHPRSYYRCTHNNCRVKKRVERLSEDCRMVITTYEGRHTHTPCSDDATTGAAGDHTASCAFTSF

The other results are listed elsewhere or left out.

The test deals with OsWRKY34 (Oryza sativa, UniProt Q0JBA9 1-250). Nature of the test: protein-binding microarray (RPBM); PBS, 2% BSA, 51.3 ng/ul salmon testes DNA, 50 uM zinc acetate, 200 nM TF, 25 C, 1 h; high values mean tight binding. Particulars: protein: recombinant; tags: N-terminal polyhistidine and DsRed monomer fusion (pET32a); label: CyDye5-dUTP incorporated in the synthesized complementary strand; 3' TTTTT single-stranded linker to array surface; dsDNA, one strand shown. Put shortly: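 Polyhistidine-tagged DsRed fusions of transcription factors, joined at the N-terminus, were expressed in E. coli BL21-CodonPlus and isolated on Ni–NTA. They were incubated at 200 nM for 1 h at 25 °C on a custom Agilent array, double-stranded and BSA-blocked, in PBS with 2% BSA, salmon testes DNA and 50 µM zinc acetate. The binding signal is per-feature fluorescence intensity (arbitrary units) read on an Axon 4000B scanner after washing.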
With “CCTTATTTTTAATTCCGAATTTCAGCTATTTTTAAATTATCGGAGTCACCTAGTGCAG”, the binding signal was 8700 fluorescence intensity (a.u.). Regarding “CCACCCTATATCACTCGAGTACTTGCCCATCAAATATATTCGGAGTCACCTAGTGCAG”, the binding signal was 9350 fluorescence intensity (a.u.). For “TGTGGTGGTGGTGGGAGGCAGCCGCGGCTGCTGCTGATGCCGGAGTCACCTAGTGCAG”, the binding signal was 13200 fluorescence intensity (a.u.). On to “CCCTCATCACACCTGCCCGCCAATCTACAACAATGCACACCGGAGTCACCTAGTGCAG”, for which the binding signal is 9470 fluorescence intensity (a.u.). Consider “TTGTTGTAGTATTTTATTTGTATTTTCACATTTTTAGGGACGGAGTCACCTAGTGCAG”, for which the binding signal is 9260 fluorescence intensity (a.u.). Regarding “TAAGTATTACTCTATTCGTTATACTATAGTATTATACTATCGGAGTCACCTAGTGCAG”, the binding signal was 8250 fluorescence intensity (a.u.).

As for “AGCGGTGTGAGGTGTTGGCACTTGGTCTGGGGCTCGGGGACGGAGTCACCTAGTGCAG”, the binding signal is 8910 fluorescence intensity (a.u.).

As for “AAACGTCCAAATCACACTCATCCTTCCATACTGTATAAATCGGAGTCACCTAGTGCAG”, the binding signal is 8480 fluorescence intensity (a.u.). As for “CTGCGCCGATCCCCATCCATCCATTGCGCGAGCGGGCGGGCGGAGTCACCTAGTGCAG”, the binding signal is 8520 fluorescence intensity (a.u.). For “TGTGCGCGGATAACTTACTCAGTACTTTCATGTCATAATTCGGAGTCACCTAGTGCAG”, the binding signal is 9480 fluorescence intensity (a.u.). Then “GCTGAGCTGATTGCTTGATTCCTCGCTCGTTCAATCTACTCGGAGTCACCTAGTGCAG”, with 9730 fluorescence intensity (a.u.); and “CCATACCAACCCATACTCTTTTTATTAGACACGTCGTATTCGGAGTCACCTAGTGCAG”, with 9090 fluorescence intensity (a.u.).

With “CTCACCGTACACTCCACCGCAGCTCGGTCATCCTTAGTCGCGGAGTCACCTAGTGCAG”, the binding signal is 12700 fluorescence intensity (a.u.). Then “GATAGGTCTCGTTAATTGTTTCACTTCCGCCGATCCTTATCGGAGTCACCTAGTGCAG”, with 10900 fluorescence intensity (a.u.); and “TTTTTTTCTTAGATTTGTACACTACTTTATGTCTCACACTCGGAGTCACCTAGTGCAG”, with 9520 fluorescence intensity (a.u.); and “AGCGAGCGACGGGCGGGGCGGAGCGGGGCGGGGCTGCATTCGGAGTCACCTAGTGCAG”, with 16700 fluorescence intensity (a.u.). For the sequence “AATTCTTTTTCTTCCGTTTGAAAACTTTACTACACATGCACGGAGTCACCTAGTGCAG”, the binding signal is 9480 fluorescence intensity (a.u.). “CTCCACCGCCCGCCCGCCCGCTGCACGCTCGCGGCCGCTCCGGAGTCACCTAGTGCAG”: the binding signal was 10000 fluorescence intensity (a.u.). As to “GTGGGTGGGCCGAATCCTTTTGTAAGAGGAGATCAGTAAGCGGAGTCACCTAGTGCAG”, the binding signal was 10100 fluorescence intensity (a.u.). For “TTACAAGATGCGGTGAAGAGGTGGGTATTTGTCCAGAAGCCGGAGTCACCTAGTGCAG”, the binding signal is 8770 fluorescence intensity (a.u.).

As to “GATAATATGGTCTCTAATCATTAATGTATCTAAATATTTTCGGAGTCACCTAGTGCAG”, the binding signal was 9730 fluorescence intensity (a.u.). For the sequence “CGCTCGGCGGTGAGGTGGAGGTGGAGGTGGGTGGGAGATGCGGAGTCACCTAGTGCAG”, the binding signal is 12900 fluorescence intensity (a.u.). For the sequence “TAGTAATGTTCCGCTAGTTTCTCTCTCTTAGAGCGCATGTCGGAGTCACCTAGTGCAG”, the binding signal is 9040 fluorescence intensity (a.u.).

For “GCCGGCTGCCCCATCCGCTTCCTCTCTTTTATTTTCTCATCGGAGTCACCTAGTGCAG”, the binding signal is 8330 fluorescence intensity (a.u.). Regarding “CCTCTTCTCTTGCGTCCCATTATCACCTCTCCACGCCGATCGGAGTCACCTAGTGCAG”, the binding signal is 8140 fluorescence intensity (a.u.).

Regarding “TATTATCGCTCTTTTCTTTTTATTATTTTTTCATAAGTACCGGAGTCACCTAGTGCAG”, the binding signal was 9630 fluorescence intensity (a.u.). In the case of “ACCAAATTTCATTAGCAAGCAGCTGTTCTGTCGCTTCCGTCGGAGTCACCTAGTGCAG”, the binding signal is 8060 fluorescence intensity (a.u.). Take “CCTTACCGTACAAGGGAGGAGGAGGTGGTGGTGGTGGAGGCGGAGTCACCTAGTGCAG”: the binding signal was 13000 fluorescence intensity (a.u.). Take “GAGTAGGATGGGGTTTGATTTTGGGGTTCGTGGGGTCGAGCGGAGTCACCTAGTGCAG”: the binding signal was 17100 fluorescence intensity (a.u.).

For “GATATGATTCGTTTTTCTTTTTGTTTTTTGTCTGCAGGGGCGGAGTCACCTAGTGCAG”, the binding signal is 12700 fluorescence intensity (a.u.). Then “TTTCTTTTCCCATTGACTTCGTGTGGTCGGGGAGGCGCGGCGGAGTCACCTAGTGCAG”, with 9830 fluorescence intensity (a.u.); and “TAGTTTTCCTTGTGGGTTTGGGATCTCATCGAGGCGGCGGCGGAGTCACCTAGTGCAG”, with 8370 fluorescence intensity (a.u.); and “TGTGTGCCGTGTGTTGCCTTGTCCGGGAAAGATGGAAATTCGGAGTCACCTAGTGCAG”, with 9040 fluorescence intensity (a.u.). Regarding “ATTCTTCATTCTTTTTGTGTGTGTTTCAGTGTGTTTGTTTCGGAGTCACCTAGTGCAG”, the binding signal was 15800 fluorescence intensity (a.u.). In the case of “ATCTCTAGCTGCACATCGATCGATCATATCCACAATTTAACGGAGTCACCTAGTGCAG”, the binding signal is 9520 fluorescence intensity (a.u.).

As for “TTGTTTGCGCTATTTGACCACTTGTCTTATTAAAAAAATTCGGAGTCACCTAGTGCAG”, the binding signal is 8030 fluorescence intensity (a.u.). “AACCCCGCATCCCATTCCCGCGGGCCTCTCGGCTGCTTCCCGGAGTCACCTAGTGCAG”: the binding signal is 9070 fluorescence intensity (a.u.).

For the sequence “TTCATGGAGTCTACTACTCTACTCCCTCTATTTTCAAATACGGAGTCACCTAGTGCAG”, the binding signal is 9010 fluorescence intensity (a.u.). Consider “TATTGTTGGTTGTCCCATTTGATCGAACTGCACAAACTATCGGAGTCACCTAGTGCAG”, for which the binding signal is 9580 fluorescence intensity (a.u.). Consider “ACGCTAGCATGTGGAGCTCACGTGGGTCCCACGCTGACTCCGGAGTCACCTAGTGCAG”, for which the binding signal was 8200 fluorescence intensity (a.u.). With “AGTACTAGGATATGTCGCATCTGGTGCCAGATTTGTTTTTCGGAGTCACCTAGTGCAG”, the binding signal is 9370 fluorescence intensity (a.u.). With “TAGCTTCTTCGGATGTGAACCATCACTCCGGCTCAACAACCGGAGTCACCTAGTGCAG”, the binding signal was 8750 fluorescence intensity (a.u.).
